# From PubChem BioAssay AID540276 (National Center for Advancing Translational Sciences (NCATS), 2011)
# About 5,400 (1.8%) of roughly 300,000 compounds were called active. The inconclusive results got no clear call from the source; some entries with a clear call stand among them for comparison. The call rests on the fitted dose curve; tested in HEK293 cells. A potency beside an inconclusive call is a rough fit, not a confirmed value.
# Experiment: qHTS for inhibitors of binding or entry into cells for Marburg Virus
# Conditions: Marburg virus pseudotyped entry inhibition, cell reporter; series mostly up to 37.8 µM
# Potency means the concentration at half of the fitted maximal effect.
row,Compound,Potency
1,C=C(C)c1cccc(C(C)(C)NC(=O)Nc2ccc(C(C)=O)cc2)c1,"inconclusive: 0.562 µM [inhibitor, single point]"
2,Cc1nn(-c2ccccc2)c(N)c1-c1ccccc1,"inconclusive: 31.6 µM [inhibitor, single point]"
3,CC(=O)N(C(C)=O)S(=O)(=O)c1ccc(N=NN2CCOCC2)cc1,"inconclusive: 11.2 µM [activator, partial curve, poor fit]"
4,Cc1ccnc2nc(C(=O)OCC(=O)Nc3ccc4c(c3)OC(F)(F)O4)nn12,inactive
5,COCCOC(=O)C1=C(C)Nc2nc(C)nn2C1c1ccc(F)cc1 (centres undefined),"inconclusive: 0.651 µM [inhibitor, full curve, poor fit]"
6,Cc1ccnc(NS(=O)(=O)c2ccc(NC(=O)c3cc(-c4ccccc4)nc4ccccc34)cc2)n1,"inconclusive: 1.58 µM [activator, single point]"
7,CCCCn1c(N)c(N(CCOC)C(=O)CCCn2c(=O)oc3ccccc32)c(=O)[nH]c1=O,inactive
8,CCN(CC)C(=O)Cn1c(=O)n(CCCCCC(=O)Nc2ccccc2)c(=O)c2sccc21,"inconclusive: 0.355 µM [inhibitor, full curve, poor fit]"
9,c1ccc(OCCCN2CCCC2)cc1,inactive
10,Cc1nn(-c2cc(C(F)(F)F)ccc2Cl)c2nc(C(Cl)(Cl)Cl)[nH]c(=O)c12,"inconclusive: 35.5 µM [inhibitor, single point]"
11,COc1ccc(NC(=S)Nc2ccccn2)cc1,"inconclusive: 3.16 µM [activator, single point]"
12,CC(C)c1cccc(C(C)C)c1NC(=O)COc1nncc2ccccc12,"inconclusive: 15.8 µM [inhibitor, single point]"
13,O=C(NCCc1ccccc1)C1CCN(Cc2cccc3ccccc23)CC1,"inconclusive: 35.5 µM [inhibitor, single point]"
14,O[C@H](CNCCCN1CCCCC1)COc1ccccc1,"inconclusive: 35.5 µM [inhibitor, single point]"
15,O=S(=O)(c1ccc(F)cc1)N1CCN(Cc2ccccn2)CC1,inactive
16,Cc1ccc(NC(=O)C(=O)NCC2CCCN2S(=O)(=O)c2cccs2)cc1C (centres undefined),"inconclusive: 20 µM [inhibitor, single point]"
17,Cc1ccc(Nc2nc(CSc3nnnn3-c3ccccc3)cs2)cc1,"inconclusive: 1.26 µM [inhibitor, single point]"
18,COc1ccc(N(CC(=O)NC2CC3CCC2C3)S(=O)(=O)c2ccc(C)c([N+](=O)[O-])c2)cc1 (centres undefined),"inconclusive: 0.316 µM [inhibitor, full curve, poor fit]"
19,CCc1cc(=O)oc2c(C)c(OCC(=O)Nc3ccc(S(=O)(=O)N(CC)CC)cc3)ccc12,inactive
20,Cc1nc(-c2ccc(-c3ccon3)s2)no1,inactive
21,CCOc1ccc2nc(Cl)c(C3CC(c4ccccc4)=NN3C(=O)CCC(=O)O)cc2c1 (centres undefined),inactive
22,CC(C)(C)n1nnnc1C(c1cccs1)N(Cc1ccc(Cl)cc1)CC1CCCO1 (centres undefined),"inconclusive: 11.2 µM [inhibitor, partial curve, poor fit]"
23,COc1ccc(N2C(=O)CS(=O)C(c3ccccc3)C2=O)cc1 (centres undefined),inactive

row,Compound,Potency
1,O=C(Cc1ccc(Cl)cc1)Nc1cc(Cl)ccn1,"inconclusive: 3.16 µM [activator, single point]"
2,Cc1cccn2cc(-c3cccc(NC(=O)c4cccs4)c3)nc12,"inconclusive: 31.6 µM [inhibitor, single point]"
3,Cc1ccc(NC(=O)COc2ccc(/C(N)=N/O)cc2)cc1C,inactive
4,CCN1C(=O)/C(=C/C=C2/Sc3ccc4ccccc4c3N2CCO)SC1=S,"inconclusive: 17.8 µM [activator, single point]"
5,Cc1ccc(NC(=O)c2cc(NC(=O)c3ccco3)ccc2N2CCOCC2)cc1,inactive
6,NCCC[C@@](N)(C(=O)O)C(F)F,inactive
7,Cc1cccc(Oc2cc(NC(=O)Cn3cnc([N+](=O)[O-])n3)cc([N+](=O)[O-])c2)c1,"inconclusive: 8.91 µM [inhibitor, partial curve, poor fit]"
8,O=C(O)c1ccc(N/N=C/c2ccc(C(F)(F)F)cc2)cc1,active: 1.58 µM
9,C/C(=N\OC(=O)NC1CCCCC1)c1sc(-c2ccccc2)nc1C,"inconclusive: 16.4 µM [inhibitor, single point]"
10,COc1ccc2nc(NC(=O)c3nc(S(=O)(=O)Cc4ccc(C)cc4)ncc3Cl)sc2c1,"inconclusive: 7.08 µM [inhibitor, partial curve, poor fit]"
11,C/C(=N/NC(=O)CNc1ccc(Cl)cc1C)c1ccc(C)cc1,"inconclusive: 3.16 µM [inhibitor, full curve]"
12,O=c1cc(CN2CCc3ccccc32)c2ccc(O)cc2o1,"inconclusive: 10 µM [inhibitor, partial curve, poor fit]"
13,C=CCSc1nnc(NC(=O)C2=COCCO2)s1,"inconclusive: 3.55 µM [activator, partial curve, poor fit]"
14,O=C(Nc1ccc(NC(=O)c2cccs2)cn1)c1ccco1,"inconclusive: 10 µM [inhibitor, partial curve, poor fit]"
15,CN(C)c1ccc(C=NCCC2(O)CCOC(C)(C)C2)cc1 (centres undefined),"inconclusive: 12.6 µM [activator, partial curve, poor fit]"
16,Cc1cc(/C=C2/NC(=O)NC2=O)c(C)n1-c1sc2c(c1C#N)CCCC2,"inconclusive: 11.2 µM [inhibitor, partial curve, poor fit]"
17,COc1ccc(-c2c[n+](CC(=O)N3c4ccccc4Sc4ccccc43)c3n2CCC3)cc1,inactive
18,Cc1ccc(/C=N\NC(=O)c2cncc(Br)c2)o1,inactive
19,CN(C)CCNC(=O)c1ccc2c(=O)n(Cc3ccc(Cl)cc3)c(=S)[nH]c2c1,"inconclusive: 31.6 µM [inhibitor, single point]"
20,COc1ccc(S(=O)(=O)NCC2(N3CCOCC3)CCCCC2)cc1OC,inactive
21,CCOC(=O)N1N=C(c2ccc(C)cc2)CC1(O)C(F)(F)F (centres undefined),"inconclusive: 29.1 µM [inhibitor, single point]"
22,Oc1oc(-c2cccc3ccccc23)nc1/C=N/c1nccs1,inactive
23,Fc1ccc(-c2cn3cc(C(F)(F)F)cc(Cl)c3n2)cc1,"inconclusive: 29.1 µM [inhibitor, single point]"

# Molecules shown so far that contain a furan ring, fused or not, in the order listed:
row,Compound,Potency
5,Cc1ccc(NC(=O)c2cc(NC(=O)c3ccco3)ccc2N2CCOCC2)cc1,inactive
14,O=C(Nc1ccc(NC(=O)c2cccs2)cn1)c1ccco1,"inconclusive: 10 µM [inhibitor, partial curve, poor fit]"
18,Cc1ccc(/C=N\NC(=O)c2cncc(Br)c2)o1,inactive

# Exported tab-delimited: two of the compounds above.
row	Compound	Potency
9	c1ccc(OCCCN2CCCC2)cc1	inactive
15	CN(C)c1ccc(C=NCCC2(O)CCOC(C)(C)C2)cc1 (centres undefined)	inconclusive: 12.6 µM [activator, partial curve, poor fit]

# The list goes on.

row,Compound,Potency
1,Nc1nc(Nc2ccc(Cl)cc2)nc2ccccc12,"inconclusive: 20 µM [inhibitor, single point]"
2,COC(=O)c1cc(C)nc(Sc2ccccc2N)n1,"inconclusive: 7.08 µM [activator, full curve, poor fit]"
3,Cc1c(NC(=O)COC(=O)c2cc3c4ccccc4n(C)c3s2)c(=O)n(-c2ccccc2)n1C,"inconclusive: 6.31 µM [inhibitor, single point]"
4,CCc1c(C)c(C#N)c2nc3ccccc3n2c1Nc1c(C)n(C)n(-c2ccccc2)c1=O,"inconclusive: 6.51 µM [inhibitor, single point]"
5,Nc1nc(SCc2ccccc2)[nH]c(=O)c1-c1ccccc1,"inconclusive: 6.51 µM [activator, single point]"
6,COC(c1ccccc1)c1nnc(CCC(=O)N(C)C(C2CC2)C2CC2)o1 (centres undefined),"inconclusive: 31.6 µM [activator, single point]"
7,CCOc1ccccc1NC(=O)c1ccccc1-c1nc(-c2ccccc2OC)no1,"inconclusive: 17.8 µM [inhibitor, single point]"
8,Cc1n[nH]c(C)c1S(=O)(=O)N1CCN(S(=O)(=O)c2cccc(F)c2)CC1,"inconclusive: 1.26 µM [inhibitor, single point]"
9,CCOc1cc(C(=O)Nc2ccc3nc(N4CCN(C)CC4)cc(C)c3c2)cc(OCC)c1OCC,active: 5.62 µM
10,COc1ccc(CC2(CO)COc3ccccc3C2=O)cc1 (centres undefined),"inconclusive: 0.562 µM [inhibitor, full curve, poor fit]"
11,CCOc1ccc(C(=O)CCC(=O)Nc2cccc(S(=O)(=O)N3CCCCC3)c2)cc1,"inconclusive: 20 µM [inhibitor, single point]"
12,CC(NC(=O)CNC(=O)c1ccco1)c1ccccc1 (centres undefined),inactive
13,Cc1ccc(NC(=O)c2cccc3ccccc23)cc1,inactive
14,O=C(N/N=C/c1ccncc1)c1cc(Br)ccc1OCc1ccccc1,"inconclusive: 7.94 µM [inhibitor, partial curve, poor fit]"
15,Cc1oc(-c2ccccc2Cl)nc1CSCC(=O)NC1CC1,"inconclusive: 23.1 µM [inhibitor, single point]"
16,CCN(CC)CCN(C(=O)Cn1nnc(-c2ccc(OC)c(OC)c2)n1)C(C(=O)NC1CCCC1)c1ccc(F)cc1 (centres undefined),"inconclusive: 29.1 µM [inhibitor, single point]"
17,CC(=O)NS(=O)(=O)c1ccc(NS(=O)(=O)c2ccccc2[N+](=O)[O-])cc1,inactive
18,COc1ccc(/C=C(\C)C(=O)c2c(C)cc(C)[nH]c2=O)cc1,"inconclusive: 0.316 µM [inhibitor, partial curve, poor fit]"
19,N#C/C(=C\c1ccc(N2CCOCC2)c([N+](=O)[O-])c1)c1nc2ccccc2[nH]1,"inconclusive: 22.4 µM [inhibitor, single point]"
20,CCC(C)NC(=O)c1ccc(COc2ccccc2Cl)cc1 (centres undefined),inactive
21,Cc1nc(-c2ccccc2)sc1C(N)=O,inactive
22,COc1ccc(CCNC(=O)C2(C)CCC(=O)N2Cc2ccc(C)cc2)cc1OC (centres undefined),inactive
23,Cc1ccc(C(=O)NC(=S)NCc2cccnc2)c(C)c1,inactive
